According to article PMC3335848, “Characterization of Multi-Functional Properties and Conformational Analysis of MutS2 from Thermotoga maritima MSB8” (PLoS ONE, 2012):

Target: T1, TmMutS2 (Thermotoga maritima MSB8) (UniProt Q9X105)
T1 sequence (looked up): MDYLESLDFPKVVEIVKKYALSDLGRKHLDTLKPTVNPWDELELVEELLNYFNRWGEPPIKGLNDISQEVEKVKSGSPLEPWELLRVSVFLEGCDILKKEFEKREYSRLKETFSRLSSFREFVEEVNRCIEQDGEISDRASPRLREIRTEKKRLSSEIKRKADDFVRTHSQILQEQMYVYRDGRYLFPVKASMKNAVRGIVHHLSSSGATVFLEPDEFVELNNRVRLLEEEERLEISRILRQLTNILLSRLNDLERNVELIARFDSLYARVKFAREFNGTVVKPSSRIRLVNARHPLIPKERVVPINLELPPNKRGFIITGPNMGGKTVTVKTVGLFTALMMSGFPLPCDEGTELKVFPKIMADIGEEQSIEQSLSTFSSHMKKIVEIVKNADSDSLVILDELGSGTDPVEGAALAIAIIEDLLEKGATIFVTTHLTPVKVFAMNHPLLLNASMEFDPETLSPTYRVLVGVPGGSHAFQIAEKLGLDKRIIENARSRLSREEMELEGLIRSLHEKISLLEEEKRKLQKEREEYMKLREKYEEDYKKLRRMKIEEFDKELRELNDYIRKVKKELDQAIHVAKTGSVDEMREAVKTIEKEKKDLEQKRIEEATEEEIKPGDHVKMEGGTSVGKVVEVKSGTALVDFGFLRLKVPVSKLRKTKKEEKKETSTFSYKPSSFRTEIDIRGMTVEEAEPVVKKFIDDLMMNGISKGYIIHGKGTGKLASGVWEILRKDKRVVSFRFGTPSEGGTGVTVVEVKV
Experiment: EMSA
Conditions: EMSA: 25 mM Hepes-NaOH pH 7.5, 200 mM NaCl, 0.5 mM EDTA, 37 C, 1 h, DNA 1 uM, TmMutS2 0-2 uM, recombinant protein

[1] = 1 mM ATP, 2 uM protein, residues 1-757, protein details: His-tag removed with TEV protease (pET-28aTEV), label: 5'-32P
[2] = no ATP, +/- 1 mM ATP, residues 1-757, protein details: His-tag removed with TEV protease (pET-28aTEV), label: 5'-32P

Row | Sequence | binding result (1 mM ATP, 2 uM protein, residues 1-757, protein details: His-tag removed with TEV protease (pET-28aTEV), label: 5'-32P, folded or branched DNA) | binding result [1] | binding result [2] | binding result (1 mM ATP, 2 uM protein, residues 1-757, protein details: His-tag removed with TEV protease (pET-28aTEV), label: 5'-32P (EMSA), folded or branched DNA)
1 | AACGGCATAAAGCTTGACGATTACATTGCTAGGACATGCTGTCTAGAGGATCCGACTATCGA / TGGGTGAACCTGCAGGTGGGCAAAGATGTCCTAGCAATGTAATCGTCAAGCTTTATGCCGTT [Flayed (DNA 4, fork)] | binds more weakly |  |  | 
2 | ACAGCACCAGATTCAGCAATTAAGCTCTAAGCCATCCGCAAAAATGACCTCTTATCAAAAGG / CCTTTTGATAAGAGGTCATTTTTGCGGATGGCTTAGAGCTTAATTGCTGAATCTGGTGGCTGT [Blunt duplex (DNA 1, linear)] |  | binds more weakly | binds more weakly | 
3 | ACAGCACCAGATTCAGCAATTAAGCTCTAAGCCATCCGCAAAAATGACCTCTTATCAAAAGG / TCCTTTTGATAAGAGGTCATTTTTGCGGATGGCTTAGAGCTTAATTGC [5'-overhang (DNA 2)] |  | binds more weakly | binds more weakly | 
4 | GACGCTGCCGAATCCTACCAGTGCCTTGCTAGGACATCTTTGCCCACCTGCAGGTCACCC / TGGGTGAACCTGCAGGTGGGCAAAGATGTCCTAGCAATGTAATCGTCAAGCTTTATGCCGTT / ATCGATAGTCGGATCCTCTAGACAGCATGTCCTAGCAAGGCACTGGTAGAATTCGGCAGCGT / CAACGGCATAAAGCTTGACGATTACATTGCTAGGACATGCTGTCTAGAGGATCCGACTATCGA [Four-way junction (FWJ, DNA 3)] |  |  |  | binds more weakly

Weaker means in comparison with the reference protein, sequence or condition of that experiment. Where a protein sequence is shown, tags need not be part of it. The exact form of at least one protein or probe is not confirmed. At least one verdict was read from the data and is not stated in words by the source.
